No constants are given. Whether binding was seen depends on the method and setting. Binding seen in cells or lysates may run through a third protein. Some entries that bind do so weakly or less than the wild type.
Legend:
[1] = target: polo-like kinase 1 (PLK1) (human (endogenous in HeLa)) (UniProt P53350); assay: co-IP; endogenous proteins; HeLa cells synchronized by double-thymidine block, whole cell lysates 6 h after the second release; immunoprecipitation with polyclonal anti-NFBD1 and blot with monoclonal anti-PLK1, and the reciprocal with monoclonal anti-PLK1; normal rabbit or mouse serum as control
[2] = target: nuclear factor with BRCT domain 1/ mediator of the DNA damage checkpoint protein 1 (NFBD1/MDC1) (human (endogenous in HeLa)) (UniProt Q14676); assay: as above

By UniProt entry, the sequences of proteins in these tests, tags left out.
UniProt P53350: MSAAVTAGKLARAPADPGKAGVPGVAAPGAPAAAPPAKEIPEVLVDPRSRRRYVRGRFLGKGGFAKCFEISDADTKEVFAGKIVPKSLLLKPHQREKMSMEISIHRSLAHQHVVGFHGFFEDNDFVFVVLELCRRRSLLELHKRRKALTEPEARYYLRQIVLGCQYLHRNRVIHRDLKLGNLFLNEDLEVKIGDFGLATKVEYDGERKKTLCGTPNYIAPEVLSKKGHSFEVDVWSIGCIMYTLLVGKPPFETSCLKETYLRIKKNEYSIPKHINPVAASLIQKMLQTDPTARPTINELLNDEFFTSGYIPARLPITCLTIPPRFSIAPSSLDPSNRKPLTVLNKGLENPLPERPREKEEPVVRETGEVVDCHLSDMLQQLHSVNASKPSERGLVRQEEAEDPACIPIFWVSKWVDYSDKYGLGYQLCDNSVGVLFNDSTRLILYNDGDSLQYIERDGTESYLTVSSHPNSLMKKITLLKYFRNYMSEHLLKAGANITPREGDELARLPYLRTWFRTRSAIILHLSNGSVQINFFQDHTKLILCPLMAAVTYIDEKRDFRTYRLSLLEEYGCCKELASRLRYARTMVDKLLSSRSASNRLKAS
UniProt Q14676: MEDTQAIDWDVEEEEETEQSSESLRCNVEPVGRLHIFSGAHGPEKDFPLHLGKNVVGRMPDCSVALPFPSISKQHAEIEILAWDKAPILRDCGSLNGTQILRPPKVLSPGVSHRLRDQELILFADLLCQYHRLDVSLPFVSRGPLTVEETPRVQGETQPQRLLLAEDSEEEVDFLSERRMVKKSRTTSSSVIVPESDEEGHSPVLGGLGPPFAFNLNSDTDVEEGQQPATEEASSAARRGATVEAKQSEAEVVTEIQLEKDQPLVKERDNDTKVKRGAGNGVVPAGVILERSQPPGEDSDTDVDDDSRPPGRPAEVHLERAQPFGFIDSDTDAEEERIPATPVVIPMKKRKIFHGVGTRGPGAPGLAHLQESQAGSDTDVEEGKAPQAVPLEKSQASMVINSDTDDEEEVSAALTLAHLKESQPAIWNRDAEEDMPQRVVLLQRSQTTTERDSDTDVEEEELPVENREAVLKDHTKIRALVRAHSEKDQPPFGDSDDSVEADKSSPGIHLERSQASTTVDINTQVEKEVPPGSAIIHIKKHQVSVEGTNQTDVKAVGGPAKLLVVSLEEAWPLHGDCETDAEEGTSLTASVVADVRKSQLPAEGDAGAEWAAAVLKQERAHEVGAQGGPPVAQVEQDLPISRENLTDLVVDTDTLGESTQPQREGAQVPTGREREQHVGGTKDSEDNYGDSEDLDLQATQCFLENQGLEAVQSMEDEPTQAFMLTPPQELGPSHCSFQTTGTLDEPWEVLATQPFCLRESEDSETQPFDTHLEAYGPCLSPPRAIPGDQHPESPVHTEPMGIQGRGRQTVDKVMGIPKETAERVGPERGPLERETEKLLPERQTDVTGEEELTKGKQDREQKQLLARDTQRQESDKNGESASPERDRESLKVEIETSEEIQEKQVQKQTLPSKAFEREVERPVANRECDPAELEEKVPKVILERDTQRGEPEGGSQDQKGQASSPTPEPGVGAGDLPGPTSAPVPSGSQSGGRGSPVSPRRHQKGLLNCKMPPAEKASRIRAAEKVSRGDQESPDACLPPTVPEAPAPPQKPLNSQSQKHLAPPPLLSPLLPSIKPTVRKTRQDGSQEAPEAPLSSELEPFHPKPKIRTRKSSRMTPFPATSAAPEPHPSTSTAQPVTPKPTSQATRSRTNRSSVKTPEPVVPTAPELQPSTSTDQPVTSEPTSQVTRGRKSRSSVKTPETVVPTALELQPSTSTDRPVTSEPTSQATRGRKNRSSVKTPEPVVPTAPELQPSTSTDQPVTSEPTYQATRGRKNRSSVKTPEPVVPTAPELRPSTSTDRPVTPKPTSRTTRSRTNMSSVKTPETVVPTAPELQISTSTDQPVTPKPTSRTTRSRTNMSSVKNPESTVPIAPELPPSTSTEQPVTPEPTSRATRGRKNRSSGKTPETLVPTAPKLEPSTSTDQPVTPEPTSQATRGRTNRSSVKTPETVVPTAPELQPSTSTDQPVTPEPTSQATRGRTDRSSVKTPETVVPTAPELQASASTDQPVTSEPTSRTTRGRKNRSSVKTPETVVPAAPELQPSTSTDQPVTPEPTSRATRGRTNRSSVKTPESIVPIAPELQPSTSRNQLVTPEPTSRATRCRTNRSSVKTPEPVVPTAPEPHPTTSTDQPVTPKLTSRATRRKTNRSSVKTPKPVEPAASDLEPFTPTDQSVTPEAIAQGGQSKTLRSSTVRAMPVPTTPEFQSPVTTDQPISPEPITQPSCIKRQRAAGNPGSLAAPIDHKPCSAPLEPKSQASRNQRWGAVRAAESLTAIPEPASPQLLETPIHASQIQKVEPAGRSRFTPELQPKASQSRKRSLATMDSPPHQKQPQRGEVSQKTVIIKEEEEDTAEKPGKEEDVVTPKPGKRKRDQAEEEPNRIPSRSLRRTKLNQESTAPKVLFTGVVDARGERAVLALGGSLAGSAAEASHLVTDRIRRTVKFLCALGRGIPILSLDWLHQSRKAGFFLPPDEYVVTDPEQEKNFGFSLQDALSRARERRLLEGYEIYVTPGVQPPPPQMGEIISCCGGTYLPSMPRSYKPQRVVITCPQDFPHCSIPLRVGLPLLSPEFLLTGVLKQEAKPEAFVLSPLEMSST

Row | binding [1] | Substance | binding [2]
1 | binds | nuclear factor with BRCT domain 1/ mediator of the DNA damage checkpoint protein 1 (NFBD1/MDC1) (from UniProt Q14676 1-2089) | –
2 | – | polo-like kinase 1 (PLK1) (from UniProt P53350 1-603) (enzyme) | binds

Reference: article PMC3859618
